PubChem BioAssay AID1224830 | NIAID, 2016

Assay: 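Regulators of TLR4 signalling towards TNF-alpha in macrophage-like cells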 (primary screen)
Cell system: human THP-1 monocytic leukaemia cells, TNF dual-luciferase reporter clone, PMA-differentiated to macrophage-like cells
Reagents: siRNA pool against human genes, 50 nM
Duration: LPS for 4 h, given about 3 days after siRNA transfection
Conditions: bacterial LPS (TLR4 ligand), 10 ng/ml
Detection: 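Ratio of firefly to renilla light, scaled to the plate median and expressed as a robust z-score per replicate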
Direction: TNF reporter robust z-score: higher = stronger TNF reporter response to LPS
Rule for the call: 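a well is active when its z-score exceeds 2.8 or falls below -1.5; control wells carry no call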
In all, the deposit lists about 18,000 reagents; shown is an unselected part. In the full data, about 2,900 (16%) are marked active. 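Calls are made per well; low scores hint the gene aids the LPS response, high scores that it dampens it.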 Unmarked entries are inactive. Repeated entries: four replicate wells of each siRNA pool. Reagent sequences are not shown.

ASPSCR1
- TNF reporter robust z-score: 1.39

ASPSCR1
- TNF reporter robust z-score: -0.78

ASPSCR1
- TNF reporter robust z-score: 1

ASPSCR1
- TNF reporter robust z-score: 0.37

APOBEC3C
- TNF reporter robust z-score: -1.35

APOBEC3C
- TNF reporter robust z-score: -1.33

APOBEC3C
- TNF reporter robust z-score: -1.57 (active)

APOBEC3C
- TNF reporter robust z-score: -1.48

LAIR1
- TNF reporter robust z-score: -0.21

LAIR1
- TNF reporter robust z-score: -0.72

LAIR1
- TNF reporter robust z-score: -0.6

LAIR1
- TNF reporter robust z-score: -0.71

The list goes on, starting with the last 2 of the part before.
LAIR1
- TNF reporter robust z-score: -0.6

LAIR1
- TNF reporter robust z-score: -0.71

COL5A1
- TNF reporter robust z-score: -0.11

COL5A1
- TNF reporter robust z-score: 0.82

COL5A1
- TNF reporter robust z-score: 0.51

COL5A1
- TNF reporter robust z-score: 3.1 (active)

NAA50
- TNF reporter robust z-score: 0.16

NAA50
- TNF reporter robust z-score: 2.86 (active)

NAA50
- TNF reporter robust z-score: 3.32 (active)

NAA50
- TNF reporter robust z-score: 2.42
